Source: publication PMC7819943, “Rice protein-binding microarrays: a tool to detect cis-acting elements near promoter regions in rice”
The other results are listed elsewhere or left out.

Target: T1, OsSMF1 (Oryza sativa, UniProt Q6ZLB0 1-436)
T1 sequence: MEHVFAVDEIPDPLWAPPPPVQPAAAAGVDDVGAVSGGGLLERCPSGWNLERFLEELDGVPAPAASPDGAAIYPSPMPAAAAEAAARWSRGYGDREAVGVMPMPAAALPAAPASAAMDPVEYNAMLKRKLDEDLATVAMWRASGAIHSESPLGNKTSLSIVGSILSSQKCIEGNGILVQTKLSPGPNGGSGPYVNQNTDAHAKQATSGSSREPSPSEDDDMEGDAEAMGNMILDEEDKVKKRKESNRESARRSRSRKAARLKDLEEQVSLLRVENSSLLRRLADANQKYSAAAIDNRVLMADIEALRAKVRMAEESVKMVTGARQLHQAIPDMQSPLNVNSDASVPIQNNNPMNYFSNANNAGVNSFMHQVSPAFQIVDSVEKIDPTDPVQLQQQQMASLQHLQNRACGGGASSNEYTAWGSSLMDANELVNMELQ
Assay: protein-binding microarray (RPBM); PBS, 2% BSA, 51.3 ng/ul salmon testes DNA, 50 uM zinc acetate, 200 nM TF, 25 C, 1 h; high values mean tight binding
Settings: protein: recombinant; tags: N-terminal polyhistidine and DsRed monomer fusion (pET32a); chain copies: 2; label: CyDye5-dUTP incorporated in the synthesized complementary strand; 3' TTTTT single-stranded linker to array surface; dsDNA, one strand shown
How it was run: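 Polyhistidine-tagged DsRed fusions of transcription factors, joined at the N-terminus, were expressed in E. coli BL21-CodonPlus and isolated on Ni–NTA. They were incubated at 200 nM for 1 h at 25 °C on a custom Agilent array, double-stranded and BSA-blocked, in PBS with 2% BSA, salmon testes DNA and 50 µM zinc acetate. The binding signal is per-feature fluorescence intensity (arbitrary units) read on an Axon 4000B scanner after washing.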

| Sequence | binding signal |
| --- | --- |
| CAGCGACAGCGACCACGCCGGTGACATCGACACCAGCAAGCGGAGTCACCTAGTGCAG | 5310 fluorescence intensity (a.u.) |
| GCCAGAGGGACGTGGGTACACGTAGAACCCACGTAGGAGCCGGAGTCACCTAGTGCAG | 8730 fluorescence intensity (a.u.) |
| ATCTGCAGACTGCAGTGCAGGCAAAGCTAGGCAACCACGTCGGAGTCACCTAGTGCAG | 3530 fluorescence intensity (a.u.) |
| TATGCCCACGTTGGACGGAGCGGAGTTTGATTGCCCTATACGGAGTCACCTAGTGCAG | 3800 fluorescence intensity (a.u.) |
| TTTCTTTTCTTCTTTCCTTCTCCCCACGGAGGTGTACGTACGGAGTCACCTAGTGCAG | 3440 fluorescence intensity (a.u.) |
| ACAATCTTCTCCAGTTATCCCCTCTCCGGATGCTGATCTGCGGAGTCACCTAGTGCAG | 3940 fluorescence intensity (a.u.) |
| TGACAGGTAGAGGTCCATCAATTGGTCATTATGCTATTCTCGGAGTCACCTAGTGCAG | 7800 fluorescence intensity (a.u.) |
| CCTACAATTAAGGACGAAATGACACGTGGAAATAGACGTGCGGAGTCACCTAGTGCAG | 14700 fluorescence intensity (a.u.) |
| AAGCACGTGTGCACGGTACACGTGTCCCAGATGGAGTAGTCGGAGTCACCTAGTGCAG | 5500 fluorescence intensity (a.u.) |
| TCCGTCAAATTCAGTCGGCAGGGTCACTGAGATATCGTCGCGGAGTCACCTAGTGCAG | 3460 fluorescence intensity (a.u.) |
| GTCATTAGGAAAACGCAATAAGCTGAGTCAGATTAGCAAGCGGAGTCACCTAGTGCAG | 7970 fluorescence intensity (a.u.) |
| GCACCTGGGACCGCGTGCGTGCGGGCGGGCGGGCGGGCGGCGGAGTCACCTAGTGCAG | 6870 fluorescence intensity (a.u.) |
| AGGTAGGGTCGTGGGGAAGGAGAAAGACCTGACATGTGGGCGGAGTCACCTAGTGCAG | 16400 fluorescence intensity (a.u.) |
| ACTACTAGTACTCGCAAATCACAATCCTTCACAAAACCGACGGAGTCACCTAGTGCAG | 3310 fluorescence intensity (a.u.) |
| GCCCTTAATCAATTTGTATCAGAACAGCAATAGATGTCTACGGAGTCACCTAGTGCAG | 26800 fluorescence intensity (a.u.) |
| CCCTGGGTGGTTTTGGAGGTGGTTTTGGTTGACGTGGCGCCGGAGTCACCTAGTGCAG | 21400 fluorescence intensity (a.u.) |
| ATATGGCAAGGTTGGATCAGTCATTTCGGCATGGCCATTTCGGAGTCACCTAGTGCAG | 3210 fluorescence intensity (a.u.) |
| CGGACCAAACACATCGAGCTCGACATCCACTTCGTCAGGGCGGAGTCACCTAGTGCAG | 3570 fluorescence intensity (a.u.) |
| TGTTTTGACGGGCCCGGAATTGCTTTTGCTGCCTAGGCACCGGAGTCACCTAGTGCAG | 3150 fluorescence intensity (a.u.) |
| CCAGAGCCAGAGTGAGCCACCACCAGAGGCGTGACCGAATCGGAGTCACCTAGTGCAG | 4470 fluorescence intensity (a.u.) |
| AAACAGCGCGTGAACGTGGCACGCCTGAACCGCACGGAACCGGAGTCACCTAGTGCAG | 4910 fluorescence intensity (a.u.) |
| CGCCGCCCTCGGAGAGTCGACGCCCGCGGCTGGCTCAGCGCGGAGTCACCTAGTGCAG | 3410 fluorescence intensity (a.u.) |
| TTAGAAATGTCCTAGTCGATGATGTGTGTACATTCGTACACGGAGTCACCTAGTGCAG | 5300 fluorescence intensity (a.u.) |
| GCCGCTGCCGTCGGGAGCTCAAGTTTGACTCGTGAGCTGGCGGAGTCACCTAGTGCAG | 3450 fluorescence intensity (a.u.) |
| GACACATCCCCTCTAGGATCCTACGTGGCACTGATGTGGCCGGAGTCACCTAGTGCAG | 34000 fluorescence intensity (a.u.) |
| CTCCTACTCATCATCATCGTCTTCTTCTTCTTGCCCAACTCGGAGTCACCTAGTGCAG | 4050 fluorescence intensity (a.u.) |
| AATCCTGCTAGAATGACTCCTCTCGTATGATGTATACCTACGGAGTCACCTAGTGCAG | 4240 fluorescence intensity (a.u.) |

| Sequence | binding signal |
| --- | --- |
| ACGAGATCCACTCGCACCAGCTCATCATTTGCTCCTCCACCGGAGTCACCTAGTGCAG | 3720 fluorescence intensity (a.u.) |
| AACTCTGATACGATGTGATATGCTGGATCGGGGAGGGGCGCGGAGTCACCTAGTGCAG | 4350 fluorescence intensity (a.u.) |
| TTATCGTTTGCAGCTTTATCATTTCAGTTCTGTTTTCAAGCGGAGTCACCTAGTGCAG | 27800 fluorescence intensity (a.u.) |
| GCTTGTTGCTAGCTAGTACGTGTACGCCAAGGCCAAGACGCGGAGTCACCTAGTGCAG | 3360 fluorescence intensity (a.u.) |
| TTTCTCTCACCTCTACGTCACTGCTACAGTTGATATGAAACGGAGTCACCTAGTGCAG | 3620 fluorescence intensity (a.u.) |
| CAGTGAGAAATAGTATTGAGCGTCAGCACAACAGAATGCACGGAGTCACCTAGTGCAG | 4170 fluorescence intensity (a.u.) |
| ATGCGTGATGACTGATGAGTGACAACAACTAGTTGCCCTCCGGAGTCACCTAGTGCAG | 5860 fluorescence intensity (a.u.) |
| AACTTCTTTGTACCTACAAGTCACACCACACATGTTTGAACGGAGTCACCTAGTGCAG | 3430 fluorescence intensity (a.u.) |
| GAAATGCTCGATCAGAACAAGTATTAGTCAGCAGATACAACGGAGTCACCTAGTGCAG | 5400 fluorescence intensity (a.u.) |
| AAGAGGACAGTTGGGCCCACATGTCAGCGGCATCCACGACCGGAGTCACCTAGTGCAG | 3570 fluorescence intensity (a.u.) |
| GTGGGCGAAGTTGGTCGGCGTGGCAGCGCGCGACCGCGTCCGGAGTCACCTAGTGCAG | 3980 fluorescence intensity (a.u.) |
| GGTTGCTGTGGTTGGCGAGGTGGGGTGGGGCTTGGAGTAACGGAGTCACCTAGTGCAG | 5230 fluorescence intensity (a.u.) |
| AGTTGGTGATCACATTGATGATTATTCCTTATAGATTACACGGAGTCACCTAGTGCAG | 3480 fluorescence intensity (a.u.) |
| CTCAGCGACCCAAAACCACCTCACCAACCCAACTCTGTACCGGAGTCACCTAGTGCAG | 3890 fluorescence intensity (a.u.) |
| CAAAGCGGAGAGTTACATCACGCTAAAGAGTTCGCTTCCACGGAGTCACCTAGTGCAG | 3250 fluorescence intensity (a.u.) |
| ACACTGTGTGACATGCGTGCATATCTGCCACACATACACACGGAGTCACCTAGTGCAG | 3300 fluorescence intensity (a.u.) |
| AATCAAAGTTGGGCACGGAAAATCATGGCCACTTAAAATGCGGAGTCACCTAGTGCAG | 3340 fluorescence intensity (a.u.) |
| TATTCTGCACAACACTCTGAATCACTCATCACTCACTAGTCGGAGTCACCTAGTGCAG | 3290 fluorescence intensity (a.u.) |
| GGGCCTTACCTCGTGGAGGCGTGGAGCTGGCCCTTGCCGCCGGAGTCACCTAGTGCAG | 4660 fluorescence intensity (a.u.) |
| GCTTTCTTGTCAAAACAGATCATGCCTTTTGTTTGTTCCACGGAGTCACCTAGTGCAG | 3330 fluorescence intensity (a.u.) |
| TTAGCTGGGATGAATTGGGAATGGCTGATGATTCATTGCTCGGAGTCACCTAGTGCAG | 3790 fluorescence intensity (a.u.) |
| GTCGAGTTGCCTACTCGCCGCCGCGTGGCCCGCCTGCCTCCGGAGTCACCTAGTGCAG | 6100 fluorescence intensity (a.u.) |
| ATCCTAAGAAGTGAGAACTCTAATGCTAGGTTTGGAATACCGGAGTCACCTAGTGCAG | 4700 fluorescence intensity (a.u.) |
| GCAGCATAGTTAGCTTTATATCTGTTTTACGTCATCACCACGGAGTCACCTAGTGCAG | 6330 fluorescence intensity (a.u.) |
| AATTCGTCCTCGACTCGTCTTCGTCTTCGCCTCGTCGTCCCGGAGTCACCTAGTGCAG | 3440 fluorescence intensity (a.u.) |
| CAAAAGCAGCAGCGTGGGTAGCGTTGCGCGCGTGACCTGGCGGAGTCACCTAGTGCAG | 4030 fluorescence intensity (a.u.) |
| AAATGGGGAGGAGTGCGGATGACATGTGGGTCCCACAAATCGGAGTCACCTAGTGCAG | 3900 fluorescence intensity (a.u.) |

10 entries from above, as comma-separated lines.
Sequence,binding signal
CAGTGAGAAATAGTATTGAGCGTCAGCACAACAGAATGCACGGAGTCACCTAGTGCAG,4170 fluorescence intensity (a.u.)
GAAATGCTCGATCAGAACAAGTATTAGTCAGCAGATACAACGGAGTCACCTAGTGCAG,5400 fluorescence intensity (a.u.)
GTGGGCGAAGTTGGTCGGCGTGGCAGCGCGCGACCGCGTCCGGAGTCACCTAGTGCAG,3980 fluorescence intensity (a.u.)
GGTTGCTGTGGTTGGCGAGGTGGGGTGGGGCTTGGAGTAACGGAGTCACCTAGTGCAG,5230 fluorescence intensity (a.u.)
AGTTGGTGATCACATTGATGATTATTCCTTATAGATTACACGGAGTCACCTAGTGCAG,3480 fluorescence intensity (a.u.)
CTCAGCGACCCAAAACCACCTCACCAACCCAACTCTGTACCGGAGTCACCTAGTGCAG,3890 fluorescence intensity (a.u.)
AATCAAAGTTGGGCACGGAAAATCATGGCCACTTAAAATGCGGAGTCACCTAGTGCAG,3340 fluorescence intensity (a.u.)
GGGCCTTACCTCGTGGAGGCGTGGAGCTGGCCCTTGCCGCCGGAGTCACCTAGTGCAG,4660 fluorescence intensity (a.u.)
GCTTTCTTGTCAAAACAGATCATGCCTTTTGTTTGTTCCACGGAGTCACCTAGTGCAG,3330 fluorescence intensity (a.u.)
ATCCTAAGAAGTGAGAACTCTAATGCTAGGTTTGGAATACCGGAGTCACCTAGTGCAG,4700 fluorescence intensity (a.u.)
